PubChem BioAssay AID686938 – Drosophila RNAi Screening Center – 2013
Test: 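Fly genes required for calcium entry once internal stores are emptied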 (primary screen). Cell system: Drosophila S2R+ cells. Reagents: long dsRNA against Drosophila genes, about 0.25 µg dsRNA per well, roughly 10,000 cells. Timing: 5 days of knock-down before the calcium assay. Challenge: thapsigargin (SERCA pump blocker) to empty calcium stores; entry signal taken 4 min after adding it. Measured: 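Per-well fluo-4 fluorescence in two replicates, unnormalised, measured in resting cells and 4 min after store depletion by the SERCA blocker thapsigargin; ratio of the two present in few wells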. Scale: calcium entry signal: higher = stronger calcium signal after store depletion; entry to resting ratio: higher = more calcium entry relative to resting level; resting calcium signal: higher = higher resting calcium signal. Active means: 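Called when the plate z-score of the entry-to-rest ratio, mean of duplicates, falls below −3; wells with low overall dye signal (Fmax z below −2) or more than five off-targets excluded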. Calls: active = strongly reduced calcium entry; inactive = no strong reduction.
In all, the deposit lists about 23,000 reagents; this is an unselected part of those with a known target gene and a result. In the full data, 75 (0.33%) got an active call. 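Raw plate signals without normalisation; calls rest on plate z-scores that were not deposited; ratio present for only 364 wells.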 Names joined by + are all predicted targets of the reagent. No sequences are given here. Not stated in the record: the dose of the treatment.

Cpr65Eb (GeneID 38774) [DRSC11026] gave calcium entry signal, replicate 1 (fluorescence units) = 3.50e7; calcium entry signal, replicate 2 (fluorescence units) = 4.30e7; resting calcium signal, replicate 1 (fluorescence units) = 1.66e7; resting calcium signal, replicate 2 (fluorescence units) = 1.75e7; inactive.
For CG9396 (GeneID 41156) [DRSC16487] the deposit lists calcium entry signal, replicate 1 (fluorescence units) = 3.55e7; calcium entry signal, replicate 2 (fluorescence units) = 3.27e7; resting calcium signal, replicate 1 (fluorescence units) = 1.67e7; resting calcium signal, replicate 2 (fluorescence units) = 1.68e7; inactive.
RSG7 (GeneID 32674) [DRSC20274] showed calcium entry signal, replicate 1 (fluorescence units) = 3.04e7; calcium entry signal, replicate 2 (fluorescence units) = 3.15e7; resting calcium signal, replicate 1 (fluorescence units) = 1.64e7; resting calcium signal, replicate 2 (fluorescence units) = 1.46e7; inactive.
Against RSG7 (GeneID 32674) [DRSC22852], the values are calcium entry signal, replicate 1 (fluorescence units) = 2.43e7; calcium entry signal, replicate 2 (fluorescence units) = 3.67e7; resting calcium signal, replicate 1 (fluorescence units) = 1.22e7; resting calcium signal, replicate 2 (fluorescence units) = 1.64e7; inactive.
CG33255 (retired record) + hpRNA:CR32205 + CR42838 [DRSC09611] gave calcium entry signal, replicate 1 (fluorescence units) = 3.25e7; calcium entry signal, replicate 2 (fluorescence units) = 4.05e7; resting calcium signal, replicate 1 (fluorescence units) = 1.75e7; resting calcium signal, replicate 2 (fluorescence units) = 1.88e7; inactive.
Knock-down of CG13640 (GeneID 42967) [DRSC14639] came out at: calcium entry signal, replicate 1 (fluorescence units) = 3.03e7; calcium entry signal, replicate 2 (fluorescence units) = 2.86e7; resting calcium signal, replicate 1 (fluorescence units) = 1.43e7; resting calcium signal, replicate 2 (fluorescence units) = 1.27e7; inactive.
Against CG11655 (GeneID 32472) [DRSC19413] the deposit lists calcium entry signal, replicate 1 (fluorescence units) = 2.50e7; calcium entry signal, replicate 2 (fluorescence units) = 2.86e7; resting calcium signal, replicate 1 (fluorescence units) = 1.33e7; resting calcium signal, replicate 2 (fluorescence units) = 1.33e7; inactive.
With knock-down of lok (GeneID 35288) [DRSC03567], the record shows calcium entry signal, replicate 1 (fluorescence units) = 4.85e7; resting calcium signal, replicate 1 (fluorescence units) = 2.45e7; inactive.
Depletion of Lsm12a (GeneID 32167) [DRSC19702] came out at: calcium entry signal, replicate 1 (fluorescence units) = 4.38e7; calcium entry signal, replicate 2 (fluorescence units) = 5.82e7; resting calcium signal, replicate 1 (fluorescence units) = 2.11e7; resting calcium signal, replicate 2 (fluorescence units) = 2.41e7; inactive.
After knock-down of NANS (GeneID 41528) [DRSC15743], the screen gave calcium entry signal, replicate 1 (fluorescence units) = 4.18e7; calcium entry signal, replicate 2 (fluorescence units) = 4.02e7; resting calcium signal, replicate 1 (fluorescence units) = 1.97e7; resting calcium signal, replicate 2 (fluorescence units) = 2.08e7; inactive.
Knock-down of Polr2M (GeneID 42309) [DRSC15513] came out at: calcium entry signal, replicate 1 (fluorescence units) = 2.19e7; calcium entry signal, replicate 2 (fluorescence units) = 2.58e7; resting calcium signal, replicate 1 (fluorescence units) = 3.68e7; resting calcium signal, replicate 2 (fluorescence units) = 1.25e7; inactive.
Depletion of CG11248 (GeneID 40411) [DRSC11644] resulted in: calcium entry signal, replicate 1 (fluorescence units) = 3.39e7; calcium entry signal, replicate 2 (fluorescence units) = 3.92e7; resting calcium signal, replicate 1 (fluorescence units) = 1.55e7; resting calcium signal, replicate 2 (fluorescence units) = 2.55e7; inactive.
Ctf4 (GeneID 36551) [DRSC06380] scored calcium entry signal, replicate 1 (fluorescence units) = 4.44e7; calcium entry signal, replicate 2 (fluorescence units) = 4.02e7; resting calcium signal, replicate 1 (fluorescence units) = 1.75e7; resting calcium signal, replicate 2 (fluorescence units) = 1.82e7; inactive.
For Phs (GeneID 39697) [DRSC10827] the deposit lists calcium entry signal, replicate 1 (fluorescence units) = 4.35e7; calcium entry signal, replicate 2 (fluorescence units) = 5.81e7; resting calcium signal, replicate 1 (fluorescence units) = 2.02e7; resting calcium signal, replicate 2 (fluorescence units) = 3.91e7; inactive.
TFAM (GeneID 42433) [DRSC15552] gave calcium entry signal, replicate 1 (fluorescence units) = 4.53e7; calcium entry signal, replicate 2 (fluorescence units) = 3.82e7; resting calcium signal, replicate 1 (fluorescence units) = 1.86e7; resting calcium signal, replicate 2 (fluorescence units) = 1.67e7; inactive.
CG2767 (GeneID 40946) [DRSC15451] gave calcium entry signal, replicate 1 (fluorescence units) = 2.80e7; calcium entry signal, replicate 2 (fluorescence units) = 3.80e7; resting calcium signal, replicate 1 (fluorescence units) = 1.24e7; resting calcium signal, replicate 2 (fluorescence units) = 1.73e7; inactive.
Against Cyp9c1 (GeneID 37941) [DRSC04607], the entry reads calcium entry signal, replicate 1 (fluorescence units) = 4.29e7; resting calcium signal, replicate 1 (fluorescence units) = 2.15e7; inactive.
Depletion of bcn92 (GeneID 31186) [DRSC18741] resulted in: calcium entry signal, replicate 1 (fluorescence units) = 6.59e7; calcium entry signal, replicate 2 (fluorescence units) = 5.80e7; entry to resting ratio 2.2; resting calcium signal, replicate 1 (fluorescence units) = 2.93e7; resting calcium signal, replicate 2 (fluorescence units) = 2.12e7; inactive.
Knock-down of Pax (GeneID 35215) [DRSC01703] gave: calcium entry signal, replicate 1 (fluorescence units) = 2.84e7; calcium entry signal, replicate 2 (fluorescence units) = 4.52e7; resting calcium signal, replicate 1 (fluorescence units) = 1.63e7; resting calcium signal, replicate 2 (fluorescence units) = 2.22e7; inactive.
Pax (GeneID 35215) [DRSC02651] showed calcium entry signal, replicate 1 (fluorescence units) = 4.43e7; resting calcium signal, replicate 1 (fluorescence units) = 2.06e7; inactive.
Silencing of Pax (GeneID 35215) [DRSC02652] gave: calcium entry signal, replicate 1 (fluorescence units) = 5.33e7; calcium entry signal, replicate 2 (fluorescence units) = 5.29e7; resting calcium signal, replicate 1 (fluorescence units) = 2.57e7; resting calcium signal, replicate 2 (fluorescence units) = 2.24e7; inactive.

Sorted by “resting calcium signal, replicate 1 (fluorescence units)” (descending): some entries from above
lok (GeneID 35288) [DRSC03567] — calcium entry signal, replicate 1 (fluorescence units): 4.85e7; resting calcium signal, replicate 1 (fluorescence units): 2.45e7; outcome: inactive
Lsm12a (GeneID 32167) [DRSC19702] — calcium entry signal, replicate 1 (fluorescence units): 4.38e7; calcium entry signal, replicate 2 (fluorescence units): 5.82e7; resting calcium signal, replicate 1 (fluorescence units): 2.11e7; resting calcium signal, replicate 2 (fluorescence units): 2.41e7; outcome: inactive
CG11655 (GeneID 32472) [DRSC19413] — calcium entry signal, replicate 1 (fluorescence units): 2.50e7; calcium entry signal, replicate 2 (fluorescence units): 2.86e7; resting calcium signal, replicate 1 (fluorescence units): 1.33e7; resting calcium signal, replicate 2 (fluorescence units): 1.33e7; outcome: inactive
